According to US20210085785A1 (TRUEBINDING, published 2021):
Numbering of substitutions follows the chain as printed. Results are given in words; binding and its absence hold for the method and conditions named. Some entries that bind do so weakly or less than the wild type. For part of these data: Sequences can lack the tags named with a protein.

What was measured:
Peptide 54 (human) [1] = target: T1, Peptide 54 (human); test: peptide ELISA (Example 5, retold in Example 6)
T1 sequence (peptide): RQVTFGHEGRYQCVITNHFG

[2] = target: T2, Purified human LRIG1 extracellular domain fused to a HIS tag (R&D Systems) (human) (UniProt Q96JA1); test: biosensor binning (Gator), hLRIG1-His amine-coupled to the probe
T2 sequence: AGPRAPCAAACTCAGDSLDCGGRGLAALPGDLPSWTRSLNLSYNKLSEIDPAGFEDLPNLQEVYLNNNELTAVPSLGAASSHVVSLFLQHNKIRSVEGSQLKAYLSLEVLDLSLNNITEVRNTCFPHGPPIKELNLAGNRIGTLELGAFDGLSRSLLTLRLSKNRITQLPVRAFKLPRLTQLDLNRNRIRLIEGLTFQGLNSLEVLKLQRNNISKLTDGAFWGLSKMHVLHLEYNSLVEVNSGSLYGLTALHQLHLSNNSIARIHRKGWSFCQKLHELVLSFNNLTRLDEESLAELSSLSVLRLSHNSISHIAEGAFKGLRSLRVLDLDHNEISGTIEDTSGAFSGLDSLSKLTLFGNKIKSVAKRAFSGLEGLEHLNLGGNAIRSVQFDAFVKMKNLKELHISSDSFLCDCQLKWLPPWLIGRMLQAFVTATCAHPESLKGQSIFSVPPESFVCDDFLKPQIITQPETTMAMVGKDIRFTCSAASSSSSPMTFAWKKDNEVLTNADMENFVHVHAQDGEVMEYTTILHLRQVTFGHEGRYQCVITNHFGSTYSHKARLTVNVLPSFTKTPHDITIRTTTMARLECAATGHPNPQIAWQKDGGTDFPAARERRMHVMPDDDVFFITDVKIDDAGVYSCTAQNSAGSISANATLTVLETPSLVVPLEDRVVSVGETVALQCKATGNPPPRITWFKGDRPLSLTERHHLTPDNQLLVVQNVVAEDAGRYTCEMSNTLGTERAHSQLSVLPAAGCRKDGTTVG

Peptide 54 (human) [3] = target: T1, Peptide 54 (human); test: peptide ELISA, antibody 0.1 ug/ml

Measured: binding

B1: mab4 (IMT300) (antibody, V domains shown)
VH: QVQLVQSGAEVKKPGASVKVSCKASGYTFTSYYLHWVRQAPGQRLEWMGWIYPGNVNTKYNQKFQGRVTITADKSASTAYMELSSLRSEDTAVYFCAREELGGFAYWGQGTLVTVSS
VL: DIQMTQSPSSVSASIGDRVTITCRASQDISNYLSWYQQKPGKAPKLLIYYTSILHSGVPSRFSGSGSGTDYTLTISSLQPEDFATYFCQQGNTLPRTFGGGTKVEIK
notes: also called hLRIG1 mAb IMT300; Immutics PP14384
binds: all assays above

B2: mab6 (antibody, V domains shown)
VH: B1 VH with M48I, Q62E, I70L
VL: B1 VL
notes: also called Immutics PP14387
binds: all assays above
